Results reported in PubChem BioAssay AID977622 (Broad Institute, 2014).
Some of the results follow. The main result of the screen is listed elsewhere. These columns were measured beside it and carry no call.

Experiments:
[1] = wild-type E. coli growth inhibition versus h38 humanized strain – h38 mutant RFP, wild-type GFP, cherry-pick, dose response (AID 977622); settings: E. coli mixed culture, 24 h, total growth OD600 at 50 uM
[2] = tested on: E. coli h38 humanized mutant ribosome RFP fluorescence, mixed culture, 24 h; experiment: as above; settings: h38 mutant RFP at 50 uM

Row | SMILES | activity change [1] | activity change [2]
1 | Cc1ccc(C)c(-c2[nH]ncc2CN2CCCC(CO)(Cc3ccccc3C)C2)c1 (stereo unspecified) | -31% | 17.7%
2 | O=C1c2ccccc2C(=O)N1CCc1c[nH]c2ccccc12 | -13.7% | 9.4%
3 | C[C@@H]1CCCCO[C@@H](CN(C)C(=O)CCCN(C)C)[C@@H](C)CN([C@H](C)CO)C(=O)c2cc(NC(=O)Nc3cccc4ccccc34)ccc2O1 | -15.4% | 25%
4 | COc1ccccc1-c1ccc(SCc2ccc(F)cc2)nn1 | -8.59% | -2.88%
5 | O=C(COC(=O)CCC(=O)c1ccc(F)cc1)Nc1cccc(S(=O)(=O)N2CCCC2)c1 | -25.1% | -15%
6 | Cc1cc2nc(SCC(=O)O)nc(C)c2cc1C | -17.4% | 
7 | COc1cc(CCN(C(=O)c2cc3ccccc3[nH]2)C(c2ccccn2)c2nc3ccccc3[nH]2)cc(OC)c1 (stereo unspecified) | -11.3% | 
8 | CCc1cc2c(nc1CC)CCCN2Cc1ccc(Br)cc1 | -39.1% | -22.9%
9 | Cc1c(C(=O)OCC(=O)N(C)c2ccccc2)oc2ccccc12 | -65% | -10.1%
10 | CC1(C(=O)NS(=O)(=O)c2ccc3c(c2)CCO3)CCN1C(=O)c1ccccc1CCc1ccccc1 (stereo unspecified) | -8.34% | 1.01%
11 | CCC(=O)Nc1nc2ccc(NC(=O)c3cc(OC)c(OC)c(OC)c3)cc2s1 | -42% | -8.47%
12 | O=C(COC(=O)c1ccc(O)cc1)Nc1ccccc1 | 5.41% | 11.2%
13 | COc1ccc(NS(=O)(=O)c2ccc(Oc3c(C#N)cccc3C#N)cc2)cc1 | -57.1% | -19.7%
14 | O=C1NC(CCc2ccccc2)C(=O)N1Cc1cccc2ccccc12 (stereo unspecified) | -50.3% | -8.11%
15 | CCN(c1ccc(OC)cc1)S(=O)(=O)c1cc(-c2cc(C)no2)ccc1OC | -68.5% | 1.1%
16 | Cc1cccc(S(=O)(=O)N2CCCCN3[C@H](CO)[C@H](c4ccc(C#CC(C)C)cc4)[C@H]3C2)c1 | -52.3% | -49.3%
17 | COc1cccc(N2CCN(c3ccc(S(=O)(=O)N4CCN(C)CC4)cc3[N+](=O)[O-])CC2)c1 | -40% | -31.9%
18 | O=C(Nc1cccc(Cl)c1)N1C[C@H]2[C@@H](c3ccccc31)[C@H](CO)N2Cc1ccncc1 | -13.9% | 31.4%
19 | CC1CCCN(c2ccc(C(=O)NCCc3ccccc3)cn2)C1 (stereo unspecified) | -41.8% | -30.6%
20 | COc1cc(SC)ccc1C(=O)N1CCN(c2ccccc2F)CC1 | -49.1% | 
21 | CC1(C(=O)NS(=O)(=O)c2cccc(C#N)c2)CCN1C(=O)C1(c2ccc(Cl)cc2)CCC1 (stereo unspecified) | -29.9% | -19.6%

Row | SMILES | activity change [1] | activity change [2]
22 | O=S(=O)(Nc1cccc(-c2ccc(N3CCCCCC3)nn2)c1)c1ccc(F)cc1 | -86% | 37.5%
23 | O=C(O)CCSc1nc2ccccc2n1-c1ccccc1 | -71.3% | -11.6%
24 | COc1ccc(C#Cc2ccc([C@@H]3[C@@H](CO)N4CCCCN(C(=O)Nc5ccccc5F)C[C@H]34)cc2)cc1 |  | 15.2%
25 | C(=C\c1ccc(C2[C@H]3CNC[C@@H]2N3Cc2nccs2)cc1)/c1ccccc1 (stereo partly specified) | -77.5% | 0.126%
26 | C=C(C)Cn1c(=O)c2c(nc3n2CCCN3Cc2ccccc2)n(C)c1=O | -45.8% | 21.4%
27 | COc1cccc(OC)c1CNC(=O)CCSCc1ccccc1F | -18.3% | -13.5%
28 | Cc1cc(C)cc(NS(=O)(=O)c2c(C(=O)N3CCCCCC3)c(C)n(C)c2C)c1 | -2.59% | -1.45%
29 | CC(Nc1ncnc2ccccc12)c1ccccc1 (stereo unspecified) | -23.7% | 4.28%
30 | CCCCC(=O)N(Cc1ccc2c(c1)OCO2)Cc1nc2ccccc2c(=O)[nH]1 | -46.5% | 
31 | Nc1[nH]c(C(=O)c2ccccc2)c(-c2ccc(Br)cc2)c1C(=O)c1cccs1 | -33.7% | 9.39%
32 | C[C@H]1CCCCO[C@@H](CN(C)C)[C@@H](C)CN([C@@H](C)CO)C(=O)c2cc(NC(=O)Nc3cccc4ccccc34)ccc2O1 | -0.43% | -9.39%
33 | COc1cccc(-n2nnnc2SCC(=O)NCc2ccc3c(c2)OCO3)c1 | -33.9% | 12.1%
34 | Cc1ccnc(NS(=O)(=O)c2ccc(NC(=O)c3ccc4c(c3)OCCO4)cc2)n1 | -28.9% | 7.81%
35 | CCOC(=O)c1sc(NC(=O)CN2CCN(c3ccccc3)CC2)nc1C | -34.5% | -24.8%
36 | C[C@H](NC(=O)C[C@@H]1C[C@@H]2c3cc(NS(=O)(=O)c4ccc(F)cc4)ccc3O[C@@H]2[C@@H](CO)O1)c1ccccc1 | -24% | 2.72%
37 | Cc1ccc(OCC(O)CN2CCN(c3ccccn3)CC2)c(C)c1 (stereo unspecified) | -56.3% | -12.1%
38 | CCNc1nc(N)c(C(=O)C23CC4CC(CC(C4)C2)C3)s1 | -10.3% | -13.8%
39 | COc1ccc(C(=O)NCCc2ccccn2)cc1S(=O)(=O)Nc1ccc(Br)cc1 | -32.3% | -30.3%
40 | Cc1cc(NC(=O)c2cccc(Oc3ccccc3)c2)n[nH]1 | -54.2% | 20.5%
41 | COc1ccc(CN(CC(O)COCc2ccccc2)S(=O)(=O)c2ccccc2Br)cc1OC (stereo unspecified) | -72.6% | 10.9%
42 | COc1ccc(NC(=O)CN(C)C(=O)c2cc(C3CC3)nn2-c2ccccc2)cc1 | -14% | 0.855%

Row | SMILES | activity change [1] | activity change [2]
43 | Cc1cc(NC(=O)CCN2C(=O)C3C4C=CC(C4)C3C2=O)ccc1Br (stereo unspecified) | -19% | 
44 | Cc1ccccc1-c1ccc([C@@H]2[C@@H](CO)N3CCCCN(C(=O)Nc4ccc(F)cc4)C[C@@H]23)cc1 | -63.4% | 3.49%
45 | COc1ccc(NC(=O)Nc2cccc3c2O[C@H](CN(C)S(=O)(=O)c2ccc(Cl)cc2)[C@@H](C)CN([C@H](C)CO)C3=O)cc1 | -52.5% | -0.134%
46 | COC(=O)COc1ccc(S(=O)(=O)N2CCc3ccccc3C2)cc1C | -29.7% | 
47 | O=C(Nc1cccc(S(=O)(=O)N2CCCCC2)c1)c1ccc(Cl)nc1 | -25.5% | -12.2%
48 | COc1cc(CN2CC(=O)N(c3ccccc3Cl)C2=S)cc(OC)c1OC | -37% | 12.5%
49 | CCN(CC)CCn1c(SCC(=O)Nc2cccc(OC)c2)nc2c(sc3ccccc32)c1=O | -57.4% | -16.6%
50 | COc1ccccc1CC(=O)NCCc1c[nH]c2ccccc12 | -7.73% | 7.6%
51 | COC(=O)c1cc2c(c3c4cc(OC)ccc4n(C(=O)c4ccccc4)c13)C(=O)N(Cc1ccco1)C2 | -9.88% | -39.2%
52 | O=C(c1cccs1)c1c[nH]cc1-c1ccccc1 | -13.5% | -29.7%
53 | O=C(NCc1ccccc1)C1C(=O)Nc2ccccc2C(=O)N1c1ccc2c(c1)OCCO2 (stereo unspecified) | -7.47% | -1.93%
54 | Cc1ccc(C(=O)Nc2ccc(C)c(S(=O)(=O)Nc3ccccc3Cl)c2)s1 | -64.9% | 3.4%
55 | CC1CC(C)CN(C(=O)c2ccc(-c3ccc([N+](=O)[O-])cc3)o2)C1 (stereo unspecified) | -80.1% | 
56 | Cc1cc(NC(=O)CS(=O)(=O)c2cn(Cc3cccc(Br)c3)c3ccccc23)no1 | -48.6% | -17.8%
57 | COc1cccc(C(=O)NC(C)c2ccc(Br)cc2)c1 (stereo unspecified) | -20.9% | 
58 | Brc1ccc(-c2nc3c4ccccc4ccn3c2Cc2ccccc2)cc1 | 8.63% | 10.1%
59 | COCc1nnc(NC(=O)c2ccc(S(=O)(=O)N3CCCC3)cc2)o1 | -13.7% | 9.94%
60 | Cc1cccc(N2CCN(Cc3nc(-c4ccc(F)cc4F)oc3C)CC2)n1 | -15.6% | 
61 | CN1CCN(C(=O)C[C@@H]2CC[C@H]3[C@@H](COC[C@H](O)CN3C(=O)Nc3ccc(Cl)cc3)O2)CC1 | -79.1% | 0.446%
62 | CC1Sc2ccc(S(=O)(=O)NCc3ccccc3)cc2NC1=O (stereo unspecified) | -26.7% | 
63 | C[C@H](CO)N1C[C@H](C)[C@H](CN(C)C(=O)CCCN(C)C)OCCCC[C@H](C)Oc2ccc(NC(=O)Nc3cccc4ccccc34)cc2C1=O | 1.4% | 26.2%

Gathered by group, the entries above with a cyano group (two)
Row | SMILES | activity change [1] | activity change [2]
13 | COc1ccc(NS(=O)(=O)c2ccc(Oc3c(C#N)cccc3C#N)cc2)cc1 | -57.1% | -19.7%
21 | CC1(C(=O)NS(=O)(=O)c2cccc(C#N)c2)CCN1C(=O)C1(c2ccc(Cl)cc2)CCC1 (stereo unspecified) | -29.9% | -19.6%

(cont.)

Row | SMILES | activity change [1] | activity change [2]
64 | Cc1cccc(NC(=O)c2c(C)nn(-c3ccccc3)c2Cl)c1 | -35.6% | 
65 | NS(=O)(=O)c1cccc(NC(=O)CSc2nc3ccc(Cl)cc3[nH]2)c1 | -53.8% | 
66 | COc1ccc(-c2cc(C(=O)N(C)CCc3ccc(OC)c(OC)c3)c3ccccc3n2)cc1 | -29.6% | 
67 | COC(=O)c1cc2c(c3c4cc(F)ccc4n(S(=O)(=O)c4ccccc4)c13)C(=O)N(Cc1ccco1)C2 | -16.9% | 6.04%
68 | O=C(NCCc1ccc(O)cc1)c1[nH]c(C(F)(F)F)nc1-c1ccccc1 | -15.1% | -2.42%
69 | O=C(Nc1cccc(Cl)c1)N1C[C@@H]2[C@H](c3ccccc31)[C@H](CO)N2Cc1ccncc1 | -14.8% | -0.299%
70 | CC(OC(=O)CCc1nc2ccccc2c(=O)[nH]1)C(=O)c1ccc(Br)cc1 (stereo unspecified) | -18% | -9.52%
71 | COc1ccc(-c2n[nH]c3c2CN(C(=O)c2ccc(F)cc2)CC3)cc1 | -36.3% | -20.8%
72 | NS(=O)(=O)c1ccc(Nc2c([N+](=O)[O-])cncc2[N+](=O)[O-])cc1 | -11.1% | 11.2%
73 | CC(C)NC(=O)N(C)C[C@H]1OCCCC[C@@H](C)Oc2ccc(NC(=O)c3ccccc3)cc2C(=O)N([C@@H](C)CO)C[C@H]1C | -3.26% | 12.4%
74 | CSc1c(-c2ccccn2)c(N)nn1C(=O)C1CC1 | -40.7% | 
75 | Cc1ccc(-c2nnc(N3CCN(C(=O)COc4cccc(C)c4)CC3)c3ccccc23)cc1 | -30.3% | -36.4%
76 | CN(c1ccccc1)S(=O)(=O)c1cccc(NC(=O)CCNC(=O)c2ccc([N+](=O)[O-])cc2)c1 | -3.04% | -10.7%
77 | O=C1N[C@@H](Cc2ccccc2)COC(=O)[C@H](Cc2ccc(F)cc2)C/C=C\C[C@H]1CC(=O)N(CCO)Cc1ccccc1 | -32% | 36.3%
78 | Cc1ccccc1-c1cc(C(=O)NCc2cccs2)n(CC2CC(c3cccnc3)=NO2)n1 (stereo unspecified) | -27.4% | -11.6%
79 | Cc1cc(F)ccc1-c1cc(C(=O)NCC2CCCCC2)[nH]n1 | -54.7% | -38.3%
80 | O=C1Nc2ccc(F)cc2C12Nc1ccccc1-c1nnc(SCc3ccccc3)nc1O2 (stereo unspecified) | -10.9% | -8.34%
81 | COc1ccc(OC)c(NC(=O)COC(=O)C2CCN(C(=O)c3ccc(Cl)cc3)CC2)c1 | -18.1% | -16%
82 | C=CCNC(=O)c1ccccc1NC(=O)c1ccc(Cl)c(S(=O)(=O)Nc2cccc(C)c2C)c1 | -84.4% | -55.5%
83 | O=C(CN1CC[n+]2c(-c3cccs3)csc21)c1ccc(-c2ccccc2)cc1 | -48.5% | 5.26%

Three entries drawn at random from those above, as already listed:
Row | SMILES | activity change [1] | activity change [2]
76 | CN(c1ccccc1)S(=O)(=O)c1cccc(NC(=O)CCNC(=O)c2ccc([N+](=O)[O-])cc2)c1 | -3.04% | -10.7%
77 | O=C1N[C@@H](Cc2ccccc2)COC(=O)[C@H](Cc2ccc(F)cc2)C/C=C\C[C@H]1CC(=O)N(CCO)Cc1ccccc1 | -32% | 36.3%
80 | O=C1Nc2ccc(F)cc2C12Nc1ccccc1-c1nnc(SCc3ccccc3)nc1O2 (stereo unspecified) | -10.9% | -8.34%
